Measured values taken from paper PMC10221034 (2023).
Where a chain is given by its changes, count along the chain named. Results are given in words; binding and its absence hold for the method and conditions named. A result given as binding can be weak or reduced; the word gives no strength.

Amino acid sequences for entries named in this document (tags omitted). A change or cut given only in a name is not applied to a line headed by its entry.
UniProt Q04JH4, whole entry, looked up, stated change not applied: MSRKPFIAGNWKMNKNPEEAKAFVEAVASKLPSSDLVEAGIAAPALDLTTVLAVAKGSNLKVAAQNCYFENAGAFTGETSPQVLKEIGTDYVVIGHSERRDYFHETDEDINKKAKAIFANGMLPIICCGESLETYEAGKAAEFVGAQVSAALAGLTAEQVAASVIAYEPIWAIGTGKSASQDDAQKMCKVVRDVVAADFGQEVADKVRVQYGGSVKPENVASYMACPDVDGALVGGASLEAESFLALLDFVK

Assays:
Assay in all cases: far-Western, overlay or dot blot; rTpiA (200 ng) separated by SDS-PAGE and transferred onto PVDF; membrane blocked with 5% BSA in TBST, incubated 90 min with 30 µg/mL plasminogen at 25 °C; bound plasminogen probed with rabbit polyclonal anti-plasminogen and HRP secondary antibody; both purified
[1] = target: T1, rTpiA K12A (Streptococcus pneumoniae D39) (UniProt Q04JH4)
T1 sequence: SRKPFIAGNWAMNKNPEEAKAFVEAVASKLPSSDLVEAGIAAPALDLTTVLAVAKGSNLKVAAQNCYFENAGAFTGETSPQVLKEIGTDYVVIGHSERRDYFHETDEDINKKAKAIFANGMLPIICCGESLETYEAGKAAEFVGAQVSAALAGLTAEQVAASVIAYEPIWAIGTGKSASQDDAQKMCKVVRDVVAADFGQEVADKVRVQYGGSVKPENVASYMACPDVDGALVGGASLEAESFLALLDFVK

[2] = target: T2, rTpiA K189A (Streptococcus pneumoniae D39) (UniProt Q04JH4)
T2 sequence: T1 sequence with A11K, K188A

[3] = target: T3, rTpiA K206A (Streptococcus pneumoniae D39) (UniProt Q04JH4)
T3 sequence: T1 sequence with A11K, K205A

[4] = target: T4, rTpiA K113A (Streptococcus pneumoniae D39) (UniProt Q04JH4)
T4 sequence: T1 sequence with A11K, K112A

[5] = target: T5, rTpiA K61A (Streptococcus pneumoniae D39) (UniProt Q04JH4)
T5 sequence: T1 sequence with A11K, K60A

[6] = target: T6, rTpiA K177A (Streptococcus pneumoniae D39) (UniProt Q04JH4)
T6 sequence: T1 sequence with A11K, K176A

[7] = target: T7, rTpiA K15A (Streptococcus pneumoniae D39) (UniProt Q04JH4)
T7 sequence: T1 sequence with A11K, K14A

Measured: binding

human plasma plasminogen
binds: [1] | [2] | [3] | [4] | [5] | [6] | [7]
